The record followed here is US20130253037A1, “AURORA A KINASE EFFECTORS” (PURDUE RESEARCH FOUNDATION, priority 2010, published 2013).

Chains of the proteins cited; added tags and fusions are not shown.
UniProt Q8WV24: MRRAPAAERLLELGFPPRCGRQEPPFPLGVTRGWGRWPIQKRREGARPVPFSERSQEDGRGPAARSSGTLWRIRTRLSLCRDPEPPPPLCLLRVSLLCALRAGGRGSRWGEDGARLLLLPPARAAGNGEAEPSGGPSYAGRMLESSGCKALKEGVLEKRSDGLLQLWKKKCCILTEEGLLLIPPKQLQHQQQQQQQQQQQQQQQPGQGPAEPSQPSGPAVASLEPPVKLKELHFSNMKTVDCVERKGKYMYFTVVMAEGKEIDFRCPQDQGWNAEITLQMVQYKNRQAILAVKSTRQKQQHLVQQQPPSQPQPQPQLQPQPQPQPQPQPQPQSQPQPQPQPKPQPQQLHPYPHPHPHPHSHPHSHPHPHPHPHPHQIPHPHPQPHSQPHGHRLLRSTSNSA

Assay [1] has as its target Pleckstrin homology-like domain, family A, member 1 (PHLDA1) (endogenous, MDA-MB-231 cells) (UniProt Q8WV24). Kind of assay: co-immunoprecipitation from MDA-MB-231 cells (PHLDA1 IP probed for Aurora A; Aurora A IP probed for PHLDA1).
Assay [2] shares this target. Nature of the assay: co-immunoprecipitation from MDA cells; PHLDA1 immune complexes probed for Aurora A, with similar results in the reverse IP (FIG. 1C).

These are yes or no findings as the source states them, for the method shown. Binding seen in cells or lysates may run through a third protein. Some binding calls cover weakened binding; strength is not graded here.

B1: Aurora A kinase (endogenous, MDA-MB-231 cells) (enzyme, human, UniProt O14965 1-403, looked up)
chain: MDRSKENCISGPVKATAPVGGPKRVLVTQQFPCQNPLPVNSGQAQRVLCPSNSSQRIPLQAQKLVSSHKPVQNQKQKQLQATSVPHPVSRPLNNTQKSKQPLPSAPENNPEEELASKQKNEESKKRQWALEDFEIGRPLGKGKFGNVYLAREKQSKFILALKVLFKAQLEKAGVEHQLRREVEIQSHLRHPNILRLYGYFHDATRVYLILEYAPLGTVYRELQKLSKFDEQRTATYITELANALSYCHSKRVIHRDIKPENLLLGSAGELKIADFGWSVHAPSSRRTTLCGTLDYLPPEMIEGRMHDEKVDLWSLGVLCYEFLVGKPPFEANTYQETYKRISRVEFTFPDFVTEGARDLISRLLKHNPSQRPMLREVLEHPWITANSSKPSNCQNKESASKQS
As to B1, the binding result in assay [1] and in assay [2] was “binds” in each case.
